Chains of the proteins cited; added tags and fusions are not shown. Where a name states a change or a piece, a line headed by the entry shows the natural chain unless it says otherwise. A line that says so, or that is headed by a name, gives the form on record, which may keep a tag or linker.
UniProt Q9Y603, whole entry A86D: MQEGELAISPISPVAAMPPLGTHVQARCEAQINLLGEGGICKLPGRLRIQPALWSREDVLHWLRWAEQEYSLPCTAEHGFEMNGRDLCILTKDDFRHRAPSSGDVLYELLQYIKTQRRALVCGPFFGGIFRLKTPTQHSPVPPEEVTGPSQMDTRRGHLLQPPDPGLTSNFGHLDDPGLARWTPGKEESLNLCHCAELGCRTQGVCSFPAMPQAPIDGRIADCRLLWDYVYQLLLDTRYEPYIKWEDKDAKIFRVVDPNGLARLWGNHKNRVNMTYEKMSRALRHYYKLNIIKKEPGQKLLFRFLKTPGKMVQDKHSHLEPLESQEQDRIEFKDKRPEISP
UniProt P41161: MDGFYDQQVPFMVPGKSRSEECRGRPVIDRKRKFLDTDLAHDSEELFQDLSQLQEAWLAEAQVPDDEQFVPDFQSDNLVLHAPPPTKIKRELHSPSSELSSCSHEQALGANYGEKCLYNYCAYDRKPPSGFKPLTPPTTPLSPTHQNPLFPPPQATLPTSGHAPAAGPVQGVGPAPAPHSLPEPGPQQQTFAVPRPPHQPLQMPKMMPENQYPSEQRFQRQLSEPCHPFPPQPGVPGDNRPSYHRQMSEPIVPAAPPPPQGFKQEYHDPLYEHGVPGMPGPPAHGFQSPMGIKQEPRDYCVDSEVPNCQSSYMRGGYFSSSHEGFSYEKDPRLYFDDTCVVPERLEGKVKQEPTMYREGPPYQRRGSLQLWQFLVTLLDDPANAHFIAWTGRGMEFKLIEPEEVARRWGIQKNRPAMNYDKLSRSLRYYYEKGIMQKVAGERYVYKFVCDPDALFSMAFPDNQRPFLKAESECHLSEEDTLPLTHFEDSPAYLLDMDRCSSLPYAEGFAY
ELF2 (human), one chain, as listed by the source: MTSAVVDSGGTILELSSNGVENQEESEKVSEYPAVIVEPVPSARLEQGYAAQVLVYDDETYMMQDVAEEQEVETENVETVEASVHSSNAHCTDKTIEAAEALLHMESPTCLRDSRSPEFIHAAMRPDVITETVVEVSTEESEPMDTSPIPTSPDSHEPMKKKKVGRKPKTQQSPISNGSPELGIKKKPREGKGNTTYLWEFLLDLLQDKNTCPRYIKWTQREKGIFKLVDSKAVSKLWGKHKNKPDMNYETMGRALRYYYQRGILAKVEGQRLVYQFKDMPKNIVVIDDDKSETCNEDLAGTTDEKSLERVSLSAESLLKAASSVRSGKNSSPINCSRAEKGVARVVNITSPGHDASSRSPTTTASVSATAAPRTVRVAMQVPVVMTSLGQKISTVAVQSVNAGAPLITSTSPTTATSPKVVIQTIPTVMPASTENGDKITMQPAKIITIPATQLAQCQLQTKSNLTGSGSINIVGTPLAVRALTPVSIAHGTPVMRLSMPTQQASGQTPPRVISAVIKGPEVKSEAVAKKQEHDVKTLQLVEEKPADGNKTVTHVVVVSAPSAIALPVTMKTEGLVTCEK

According to article PMC4338625:

Tests used:
Test in all cases: EMSA
SPI1 (human) = details: EMSA conditions not printed (as previously described, ref 5); protein stock in 10 mM Tris pH 7.9, 0.5 mM EDTA, 200 mM KCl, 1 mM DTT, 10% glycerol; recombinant protein; residues 1-271; protein details: N-term 6xHis
ETV7 A86D (human) = ETV7 A86D (human) (UniProt Q9Y603); details: EMSA conditions not printed (as previously described, ref 5); protein stock in 10 mM Tris pH 7.9, 0.5 mM EDTA, 200 mM KCl, 1 mM DTT, 10% glycerol; recombinant protein; residues 1-341; protein details: N-term 6xHis
ETV5 (human) = ETV5 (human) (UniProt P41161); details: EMSA conditions not printed (as previously described, ref 5); protein stock in 10 mM Tris pH 7.9, 0.5 mM EDTA, 200 mM KCl, 1 mM DTT, 10% glycerol; recombinant protein; residues 1-510; protein details: N-term 6xHis
ELF2 (human) = details: EMSA conditions not printed (as previously described, ref 5); protein stock in 10 mM Tris pH 7.9, 0.5 mM EDTA, 200 mM KCl, 1 mM DTT, 10% glycerol; recombinant protein; residues 1-581; protein details: N-term 6xHis
ERF (human) = biological target: T1, ERF (human) (UniProt P50548); details: EMSA conditions not printed (as previously described, ref 5); protein stock in 10 mM Tris pH 7.9, 0.5 mM EDTA, 200 mM KCl, 1 mM DTT, 10% glycerol; recombinant protein; residues 1-548; protein details: N-term 6xHis
T1 sequence (looked up): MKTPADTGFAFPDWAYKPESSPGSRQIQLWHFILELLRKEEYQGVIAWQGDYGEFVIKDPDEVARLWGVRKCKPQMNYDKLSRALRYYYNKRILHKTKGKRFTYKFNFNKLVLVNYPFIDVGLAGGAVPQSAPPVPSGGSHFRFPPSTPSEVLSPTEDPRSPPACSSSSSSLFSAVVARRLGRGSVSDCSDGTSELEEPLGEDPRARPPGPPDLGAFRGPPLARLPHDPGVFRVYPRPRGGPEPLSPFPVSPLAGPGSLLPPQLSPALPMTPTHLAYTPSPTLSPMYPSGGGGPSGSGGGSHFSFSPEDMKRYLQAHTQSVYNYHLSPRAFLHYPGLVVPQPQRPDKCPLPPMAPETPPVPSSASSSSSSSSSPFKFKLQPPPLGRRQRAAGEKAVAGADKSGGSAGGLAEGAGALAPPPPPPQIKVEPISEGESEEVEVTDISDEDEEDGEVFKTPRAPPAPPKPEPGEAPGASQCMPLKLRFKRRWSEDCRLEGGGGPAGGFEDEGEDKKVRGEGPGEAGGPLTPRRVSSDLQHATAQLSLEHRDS

ETS1 (human) = system: T2, ETS1 (human); details: EMSA conditions not printed (as previously described, ref 5); protein stock in 10 mM Tris pH 7.9, 0.5 mM EDTA, 200 mM KCl, 1 mM DTT, 10% glycerol; recombinant protein; residues 1-485; protein details: N-term 6xHis
T2 sequence (looked up): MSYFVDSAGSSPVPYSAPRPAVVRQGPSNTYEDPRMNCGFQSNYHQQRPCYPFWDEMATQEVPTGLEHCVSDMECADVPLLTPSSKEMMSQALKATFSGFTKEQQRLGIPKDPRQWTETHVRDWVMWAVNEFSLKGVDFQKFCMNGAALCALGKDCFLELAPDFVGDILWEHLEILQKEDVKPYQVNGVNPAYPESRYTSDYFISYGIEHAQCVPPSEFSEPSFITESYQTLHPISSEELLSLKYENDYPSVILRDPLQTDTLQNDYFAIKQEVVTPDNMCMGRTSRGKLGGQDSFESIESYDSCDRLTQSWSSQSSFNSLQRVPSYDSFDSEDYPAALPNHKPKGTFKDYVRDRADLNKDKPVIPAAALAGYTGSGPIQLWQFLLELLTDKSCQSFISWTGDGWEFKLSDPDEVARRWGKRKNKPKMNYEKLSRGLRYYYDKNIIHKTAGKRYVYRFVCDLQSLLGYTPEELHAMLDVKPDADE

GABPA (human) = biological target: T3, GABPA (human) (UniProt Q06546); details: EMSA conditions not printed (as previously described, ref 5); protein stock in 10 mM Tris pH 7.9, 0.5 mM EDTA, 200 mM KCl, 1 mM DTT, 10% glycerol; recombinant protein; residues 1-454; protein details: N-term 6xHis
T3 sequence (looked up): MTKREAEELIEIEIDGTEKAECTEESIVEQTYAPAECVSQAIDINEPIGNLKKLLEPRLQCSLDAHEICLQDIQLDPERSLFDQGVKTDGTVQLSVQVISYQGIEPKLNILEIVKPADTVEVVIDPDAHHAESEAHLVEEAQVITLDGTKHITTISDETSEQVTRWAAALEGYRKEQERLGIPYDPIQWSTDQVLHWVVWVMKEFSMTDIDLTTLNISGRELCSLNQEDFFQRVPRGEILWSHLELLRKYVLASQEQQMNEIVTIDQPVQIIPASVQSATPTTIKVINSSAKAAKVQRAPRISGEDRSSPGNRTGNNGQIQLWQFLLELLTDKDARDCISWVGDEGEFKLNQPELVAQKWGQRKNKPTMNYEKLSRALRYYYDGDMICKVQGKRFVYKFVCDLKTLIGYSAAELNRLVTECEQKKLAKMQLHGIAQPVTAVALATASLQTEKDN

ETV1 (human) = biological target: T4, ETV1 (human) (UniProt P50549); details: EMSA conditions not printed (as previously described, ref 5); protein stock in 10 mM Tris pH 7.9, 0.5 mM EDTA, 200 mM KCl, 1 mM DTT, 10% glycerol; recombinant protein; residues 1-477; protein details: N-term 6xHis
T4 sequence (looked up): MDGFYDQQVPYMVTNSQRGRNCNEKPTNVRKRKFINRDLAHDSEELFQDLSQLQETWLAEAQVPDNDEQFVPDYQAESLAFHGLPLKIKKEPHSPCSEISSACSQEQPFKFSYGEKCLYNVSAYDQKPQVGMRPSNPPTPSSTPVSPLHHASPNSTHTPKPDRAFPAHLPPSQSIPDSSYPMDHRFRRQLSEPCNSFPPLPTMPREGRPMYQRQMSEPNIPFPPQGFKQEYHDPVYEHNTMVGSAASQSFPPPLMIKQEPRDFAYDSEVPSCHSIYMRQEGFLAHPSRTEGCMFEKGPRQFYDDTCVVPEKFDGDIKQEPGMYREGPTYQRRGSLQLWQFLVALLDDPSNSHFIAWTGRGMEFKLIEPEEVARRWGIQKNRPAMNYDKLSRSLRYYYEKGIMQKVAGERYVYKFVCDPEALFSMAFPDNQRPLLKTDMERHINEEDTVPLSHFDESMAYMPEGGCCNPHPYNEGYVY

Measured: binding result

GCCACGGCCCAGGAAGTGACTCACCCACCCTGATG (double strand) [ETS consensus EMSA probe]
binds: all assays above

For at least one entry, the source does not settle the construct or the ends of the probe. At least one verdict was read from the data and is not stated in words by the source. For some assays here: Tags and fusion partners may be left off the protein sequences shown.
